The chains behind the UniProt entries cited, without tags or fusion partners. Where a name states a change or a piece, a line headed by the entry shows the natural chain unless it says otherwise.
UniProt Q04206, whole entry: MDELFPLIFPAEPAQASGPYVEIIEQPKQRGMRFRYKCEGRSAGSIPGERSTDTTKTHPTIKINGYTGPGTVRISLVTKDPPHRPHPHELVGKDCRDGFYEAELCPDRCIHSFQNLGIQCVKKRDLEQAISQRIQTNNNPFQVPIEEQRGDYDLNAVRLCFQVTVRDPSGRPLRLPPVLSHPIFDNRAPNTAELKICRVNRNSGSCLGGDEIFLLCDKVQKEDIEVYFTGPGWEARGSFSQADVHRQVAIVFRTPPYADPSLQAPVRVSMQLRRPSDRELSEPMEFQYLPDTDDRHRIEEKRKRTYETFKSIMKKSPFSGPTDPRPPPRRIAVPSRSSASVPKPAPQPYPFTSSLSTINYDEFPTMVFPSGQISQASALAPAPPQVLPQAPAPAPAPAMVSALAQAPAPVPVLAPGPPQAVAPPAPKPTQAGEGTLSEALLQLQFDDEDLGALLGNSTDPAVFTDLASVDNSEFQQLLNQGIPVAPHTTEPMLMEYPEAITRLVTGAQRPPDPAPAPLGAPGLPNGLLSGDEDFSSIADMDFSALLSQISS
UniProt Q01094: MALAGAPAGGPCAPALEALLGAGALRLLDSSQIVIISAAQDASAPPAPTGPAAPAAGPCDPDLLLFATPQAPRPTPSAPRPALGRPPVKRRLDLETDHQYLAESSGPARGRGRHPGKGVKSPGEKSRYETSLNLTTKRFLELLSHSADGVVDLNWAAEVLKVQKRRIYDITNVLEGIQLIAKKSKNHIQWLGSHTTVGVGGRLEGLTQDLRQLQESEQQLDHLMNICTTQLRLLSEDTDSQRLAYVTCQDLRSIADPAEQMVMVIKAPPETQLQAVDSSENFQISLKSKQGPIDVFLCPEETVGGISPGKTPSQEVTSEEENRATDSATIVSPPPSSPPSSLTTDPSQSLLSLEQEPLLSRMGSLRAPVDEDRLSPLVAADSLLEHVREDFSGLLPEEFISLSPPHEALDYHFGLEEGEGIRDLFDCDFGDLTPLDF

According to patent publication US20240131173:

Key:
[1] = biological target: p65 (RelA, NF-kB subunit) (UniProt Q04206); assay: competition with a labelled probe; settings: protein in a lysate after overexpression, protein details: Flag, expressed in HEK293T, folded or branched DNA
[2] = biological target: p65 (RelA, NF-kB subunit) (UniProt Q04206); assay: pull-down; settings: protein in a lysate after overexpression, protein details: Flag, expressed in HEK293T, folded or branched DNA
[3] = biological target: E2F1 (UniProt Q01094); assay: competition with a labelled probe; settings: protein in a lysate after overexpression, protein details: HA, expressed in HEK293T
[4] = biological target: E2F1 (UniProt Q01094); assay: pull-down; settings: protein in a lysate after overexpression, protein details: HA, expressed in HEK293T

## TGGGGACTTTCCAGTTTCTGGAAAGTCCCCA [N3-NF-kB-ODN]
[1]; 5' azide via amino modifier C6, excess competes with Biotin-NF-kB-ODN, azide does not affect binding, variant of NF-kB-ODN
  binding result: binds

## TGGGGACTTTCCAGTTTCTGGAAAGTCCCCA [Biotin-NF-kB-ODN]
[2]; 5' biotin via NH2-(CH2)2-O-(CH2)2-OH spacer, streptavidin pulldown from lysate, EBC buffer, 4 C, label: biotin
  binding result: binds

## TGGGGACTTTCCAGTTTCTGGAAAGTCCCCA [NF-kB-ODN]
[1]; excess competes with Biotin-NF-kB-ODN
  binding result: binds

## TGGGGACTTTCCAGTTTCTGGAAAGTCCCCA [dNF-kB #1]
[1]; 5' VHL ligand (VHLL-BCN #1) conjugated by SPAAC, competes with Biotin-NF-kB-ODN, also bridges p65 and GST-VHL complex in pulldown, variant of N3-NF-kB-ODN
  binding result: binds

## CTAGATTTCCCGCG / CTAGCGCGGGAAAT [E2F-ODN]
[3]; competes with Biotin-E2F-ODN
  binding result: binds

## TGGGGACTTTCCAGTTTCTGGAAAGTCCCCA [dNF-kB #4, #7, #15, #16, #18]
[2]; 5' VHL ligand (VHLL-BCN #4, #7, #15, #16 or #18) conjugated by SPAAC, variant of N3-NF-kB-ODN
  binding result: binds

## CTAGATTTCCCGCG / CTAGCGCGGGAAAT [Biotin-E2F-ODN]
[4]; 5' biotin on sense strand, streptavidin pulldown from lysate, EBC buffer, 4 C, text prints antisense as SEQ 7, label: biotin
  binding result: binds

## CTAGATTTCCCGCG / CTAGCGCGGGAAAT [dE2F #15, #16, #17]
[4]; 5' VHL ligand (VHLL-BCN #15, #16 or #17) on sense strand by SPAAC, ternary complex with GST-VHL complex, #16 and #17 degrade E2F1 in HeLa, variant of N3-E2F-ODN
  binding result: binds

## CTAGATTTCCCGCG / CTAGCGCGGGAAAT [N3-E2F-ODN]
[3]; 5' azide on sense strand, binds as efficiently as E2F-ODN, variant of E2F-ODN
  binding result: binds

Where cells or extracts were used, other partners may take part. For part of these data: For at least one entry, the source does not settle the construct or the ends of the probe.
